In patent US12302903B2, “Oxazepinone derivative, agricultural/horticultural insecticide containing the same, and method for using the same” (priority 2019, dated 2025):
Some entries share one result that the patent states for a list of compounds.

Legend:
[1] = system: Green Peach Aphid (Myzus Persicae); assay: Test for control efficacy on Green Peach Aphid (foliar spray on potted Chinese cabbage); format: in vivo; settings: 500 ppm, sprayed over stems and leaves of potted Chinese cabbages, sixth day after spraying
[2] = system: Whitefly (Bemisia tabaci); assay: Test of insecticidal efficacy against Whitefly (sprayed tomato leaf); format: in vivo; settings: 500 ppm, adults, 25° C., humidity 65%, two days after inoculation

## COCN1C(=O)c2nn(-c3cccnc3)cc2Oc2ncccc21 [Compound No. 1-1, 9-(methoxymethyl)-2-(pyridin-3-yl)-2H-pyrazolo[3,4-f]pyrido[2,3-b][1,4]oxazepine-10(9H)-one]
[1]
  control efficacy (control rate) judgement against green peach aphids: A (control rate: 100%)
[2]
  insecticidal rate judgement against Whitefly: A (Insecticidal rate: 100%)
